# Measured values taken from publication PMC6335623, “A computationally designed binding mode flip leads to a novel class of potent tri-vector cyclophilin inhibitors” (Chemical Science, 2018).
# Amino acid sequences for entries named in this document (tags omitted). Residues count along the entry.
# UniProt P23284, 34-216: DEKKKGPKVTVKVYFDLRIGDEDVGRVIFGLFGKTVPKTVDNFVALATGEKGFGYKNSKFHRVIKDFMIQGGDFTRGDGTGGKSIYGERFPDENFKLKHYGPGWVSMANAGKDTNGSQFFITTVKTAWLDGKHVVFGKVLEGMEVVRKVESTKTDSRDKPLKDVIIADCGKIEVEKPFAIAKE
# Target: T1, His-CypB (Homo sapiens, UniProt P23284)
# T1 construct: made in house; host or cells: E. coli C41 BL21(DE3) ('C41 BL21(DH3)' [sic]); plasmid from the Edinburgh Protein Production Facility
# Assay: biochemical
# Format: binding
# Experimental: injection protocol (Fig. S9B). […]
# using the same instrument parameters was performed (Fig. S9A).
# Surface Plasmon Resonance (SPR)
# SPR1 – SPR equipment and reagents
# SPR measurements were performed on a BIAcore T200 instrument (GE Healthcare). Ni2+- nitrilotriacetic acid (NTA) sensor chips, 1-ethyl-3-(3- diaminopropyl) carbodiimide hydrochloride (EDC) and Nhydroxysuccinimide (NHS) were purchased from GE Healthcare.
# SPR2 – Immobilization and covalent stabilizations of His-Cyps
# Pure His-cyclophilins were immobilized and covalently stabilized on the NTA sensor chip according to the protocol described [Wear et al., 2017, FEBS OpenBio], using 200 nM concentrations of each protein, in Running Buffer (PBS, pH 7.4; 0.05% surfactant P20, 2% v/v ethanol; 50 µM EDTA), at 30 µl min-1 with 60 second contact times on the activated NTA surfaces.
# (1 picture or pasted object on this page, not shown here) […]
# Buffer (PBS, pH 7.4, 50 µM mM EDTA; 0.05 % v/v surfactant P20; 2 % v/ v ethanol), were injected over the sensor surface, at 100 µl.min -1 with a 90 s contact time and a 90 s dissociation time. […] The apparent on-rate (k+) and off-rate (k-) constants and the equilibrium dissociation constant (K d) were calculated from reference corrected sensorgrams by global fitting of a 1:1 binding model, including a mass transport term, using analysis software ( v.2.02, GE Healthcare) provided with the BIAcore T200 […]
compound,measurement,value
Cn1nnc(CN(Cc2ccc(N)cc2)C(=O)NCC(=O)N2CCCC2c2ccccc2Br)n1 (stereo not shown) [Compound 15],Kd,200 ± 100 nM
